Results deposited as PubChem BioAssay AID1259424 (University of Nebraska Medical Center, 2018)
Here is an unselected part of about 14,000 reagents tested. 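Higher correlation or smaller distance means closer resemblance to KSR1 loss; control wells, including KSR1 knockdowns, recur on many plates.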 No sequences are given here. Not given: the time to read-out.

Test: 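Seek colon cancer survival genes behaving like KSR1, using a six-gene signature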 (primary screen)
Cells: human HCT116 colon cancer cells
Reagents: siRNA pool against human genes, 50 nM
Read-out: 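Log2 levels of six mRNAs (branched-DNA multiplex), adjusted by two reference genes and the non-targeting median, then scored against the average KSR1 knockdown pattern as Pearson r and euclidean distance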
Scale: mean correlation with KSR1 profile and KSR1 correlation: higher = expression change more like KSR1 knockdown; mean distance from KSR1 profile: higher = expression change less like KSR1 knockdown

gene knocked down,mean correlation with KSR1 profile,mean distance from KSR1 profile,"KSR1 correlation, replicate 1","KSR1 correlation, replicate 2","KSR1 correlation, replicate 3"
HEMGN (hemogen),-0.167,5.24,0.0312,-0.332,-0.237
AMPD2 (adenosine monophosphate deaminase 2),-0.013,2.52,-0.0956,0.0614,-0.178
SEMA4G (semaphorin 4G),-0.725,3.52,-0.759,-0.543,-0.577
"SEC22B (SEC22 homolog B, vesicle trafficking protein)",-0.0191,3.7,-0.0364,0.0298,-0.0981
ADH5P4 (ADH5 pseudogene 4),-0.321,2,-0.151,0.853,-0.661
WNT8A (Wnt family member 8A),0.321,2.67,0.574,0.193,-0.128
SHROOM2 (shroom family member 2),-0.349,2.9,-0.108,-0.608,-0.518
RGS9 (regulator of G protein signaling 9),0.705,1.51,0.765,0.815,0.679
GATM (glycine amidinotransferase),-0.229,3.55,-0.195,-0.318,-0.32
REXO4 (RNA exonuclease 4),-0.376,4.05,-0.316,-0.296,-0.525
LILRB1 (leukocyte immunoglobulin like receptor B1),-0.128,1.49,-0.314,-0.0792,0.184
"PPM1A (protein phosphatase, Mg2+/Mn2+ dependent 1A)",-0.0166,1.78,0.0615,-0.0791,-0.0496
GABARAPL1 (GABA type A receptor associated protein like 1),-0.0818,2.21,0.0783,-0.376,-0.173
MICB (MHC class I polypeptide-related sequence B),-0.209,1.48,-0.359,-0.601,-0.156
AFG3L2 (AFG3 like matrix AAA peptidase subunit 2),-0.218,2.61,0.0744,-0.223,-0.325
APOA1 (apolipoprotein A1),0.0943,2.05,0.00687,0.262,0.168
GYPC (glycophorin C (Gerbich blood group)),-0.335,4.35,-0.424,-0.501,-0.441
EVI5L (ecotropic viral integration site 5 like),0.37,1.79,0.332,0.58,0.472
CBFA2T2 (CBFA2/RUNX1 partner transcriptional co-repressor 2),0.531,4.63,0.485,0.646,0.62
BIRC5 (baculoviral IAP repeat containing 5),-0.389,2.24,0.0994,-0.321,-0.545
